# Results are given in words; binding and its absence hold for the method and conditions named. In cells and extracts the contact can be indirect. Some binding calls cover weakened binding; strength is not graded here. Where a sequence is shown, tags or fusion partners need not be part of it.
# T1: PmoA-GFP (Methylosinus trichosporium OB3b) (UniProt Q50541)
# T1 sequence: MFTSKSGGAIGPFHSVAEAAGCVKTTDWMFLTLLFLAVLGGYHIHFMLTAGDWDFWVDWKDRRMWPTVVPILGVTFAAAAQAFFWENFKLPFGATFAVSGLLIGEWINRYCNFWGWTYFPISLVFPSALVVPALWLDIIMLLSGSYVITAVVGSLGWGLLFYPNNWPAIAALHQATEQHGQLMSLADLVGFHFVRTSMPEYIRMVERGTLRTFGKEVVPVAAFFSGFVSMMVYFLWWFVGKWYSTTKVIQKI
# T2: GFP-PmoA (Methylosinus trichosporium OB3b) (UniProt Q50541)
# T2 sequence: T1 sequence
# T3: GFP-PmoC (Methylosinus trichosporium OB3b) (UniProt Q9KX51)
# T3 sequence: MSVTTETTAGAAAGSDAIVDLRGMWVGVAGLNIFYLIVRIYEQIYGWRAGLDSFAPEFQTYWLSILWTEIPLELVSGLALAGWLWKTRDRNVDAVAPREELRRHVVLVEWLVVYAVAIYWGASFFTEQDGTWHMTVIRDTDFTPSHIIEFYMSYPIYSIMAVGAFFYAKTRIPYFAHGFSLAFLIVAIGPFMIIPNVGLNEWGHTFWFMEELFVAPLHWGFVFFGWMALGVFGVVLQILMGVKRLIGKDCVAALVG
# B1: mCherry-PmoC (protein, UniProt Q9KX51 1-256)
# chain: T3 sequence
# B2: PmoC-RFP (protein, UniProt Q9KX51 1-256)
# chain: T3 sequence
# B3: csPmoB-loopRFP (domain or fragment, UniProt Q9KX50 40-431)
# chain: HGEKSQQAFLRMRTLNWYDVKWSKTSLNVNESMVLSGKVHVFSAWPQAVANPKSSFLNAGEPGPVLVRTAQFIGEQFAPRSVSLEVGKDYAFSIDLKARRAGRWHVHAQINVEGGGPIIGPGQWIEIKGDMADFKDPVTLLDGTTVDLETYGIDRIYAWHFPWMIAAAAWILYWFFKKGIIASYLRISEGKDEEQIGDDDRRVGAIVLAVTILATIIGYAVTNSTFPRTIPLQAGLQKPLTPIIEEGTAGVGPHVVTAELKGGVYKVPGRELTIQVKVTNKTDEPLKLGEYTAAGLRFLNPDVFTTKPEFPDYLLADRGLSTDPTPLAPGETKTIEVKVQDARWDIERLSDLAYDTDSQIGGLLMFFSPSGKRYATEIGGPVIPKFVAGDMP
# B4: GFP-PmoA (protein, UniProt Q50541 1-252)
# chain: T1 sequence
# B5: GFP-PmoC (protein, UniProt Q9KX51 1-256)
# chain: T3 sequence
# Experiments:
# Experiment in all cases: FRET or BRET; FRET-FLIM (two-photon fluorescence lifetime imaging) in plant cells co-expressing a GFP donor fusion and an RFP or mCherry acceptor fusion; lifetimes measured in the nuclear envelope; a donor lifetime significantly lower than that of the donor alone is taken as interaction
# [1] = target: T1, PmoA-GFP (Methylosinus trichosporium OB3b)
# [2] = target: T2, GFP-PmoA (Methylosinus trichosporium OB3b)
# [3] = target: T3, GFP-PmoC (Methylosinus trichosporium OB3b)
Binder,binding [1],binding [2],binding [3]
B1,binds,,
B2,binds,,
B3,,binds,binds
B4,,binds,
B5,,,binds
